Measured values reported in publication PMC11904942.

Chains of the proteins cited; added tags and fusions are not shown.
UniProt P42568: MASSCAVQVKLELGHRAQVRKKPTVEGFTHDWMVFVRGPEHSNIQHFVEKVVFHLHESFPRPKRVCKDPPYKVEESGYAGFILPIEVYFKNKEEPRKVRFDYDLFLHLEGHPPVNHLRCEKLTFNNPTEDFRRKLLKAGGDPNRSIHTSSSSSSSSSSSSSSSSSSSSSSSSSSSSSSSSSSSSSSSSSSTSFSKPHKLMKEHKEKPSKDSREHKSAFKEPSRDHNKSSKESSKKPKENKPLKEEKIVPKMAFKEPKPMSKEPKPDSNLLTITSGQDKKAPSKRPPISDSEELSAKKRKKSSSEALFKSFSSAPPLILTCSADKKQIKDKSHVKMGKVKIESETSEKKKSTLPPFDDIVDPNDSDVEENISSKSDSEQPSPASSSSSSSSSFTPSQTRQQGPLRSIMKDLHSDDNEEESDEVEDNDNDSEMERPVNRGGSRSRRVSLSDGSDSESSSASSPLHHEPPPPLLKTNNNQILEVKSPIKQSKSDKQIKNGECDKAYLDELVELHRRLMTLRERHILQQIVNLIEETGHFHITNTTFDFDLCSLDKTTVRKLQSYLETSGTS
UniProt P09429: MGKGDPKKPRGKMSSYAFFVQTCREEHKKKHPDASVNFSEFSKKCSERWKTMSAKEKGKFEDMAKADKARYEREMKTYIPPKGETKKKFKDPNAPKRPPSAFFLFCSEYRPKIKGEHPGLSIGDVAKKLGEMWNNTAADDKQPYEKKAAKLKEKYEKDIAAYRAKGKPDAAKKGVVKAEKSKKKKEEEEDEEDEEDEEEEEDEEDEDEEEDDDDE
UniProt P67809: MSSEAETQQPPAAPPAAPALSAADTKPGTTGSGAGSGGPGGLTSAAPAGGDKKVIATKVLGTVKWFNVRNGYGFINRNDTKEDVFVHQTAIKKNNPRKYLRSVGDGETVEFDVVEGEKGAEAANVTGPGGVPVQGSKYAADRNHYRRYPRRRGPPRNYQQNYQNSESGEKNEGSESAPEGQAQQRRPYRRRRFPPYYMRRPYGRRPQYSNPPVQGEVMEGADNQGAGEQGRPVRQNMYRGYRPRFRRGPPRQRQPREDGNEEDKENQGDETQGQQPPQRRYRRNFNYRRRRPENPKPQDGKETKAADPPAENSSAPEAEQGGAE

Biological target: Flag-MLLT3 (Myeloid/Lymphoid Or Mixed-Lineage Leukemia; Translocated To, 3), full length (human) (UniProt P42568)
Assay: affinity purification with mass spectrometry; HEK-293T cells transfected with the Flag-MLLT3 plasmid; MLLT3-interacting proteins purified and analysed by LC-MS/MS

Row | Substance | binding
1 | High mobility group box 1 (HMGB1), found with Flag-MLLT3 by LC-MS/MS (from UniProt P09429 1-215) | binds
2 | Y-box binding protein 1 (YBX1), found with Flag-MLLT3 by LC-MS/MS (from UniProt P67809 1-324) | binds

No constants are given. Whether binding was seen depends on the method and setting. In cells and extracts the contact can be indirect. These calls come from enrichment with a bait or labelling near it, and not all partners need be listed.
